# Results published in US20090054403A1, “Treatment of Post-Traumatic Stress Disorder” (priority 2007, published 2009).
# At least one compound was matched to its structure with a doubt left.
# Test system: mean arterial pressure and heart rate
# Test: Heart rate and mean arterial pressure in restrained SHR with SCH-23390 pretreatment
# Format: in vivo, spontaneous hypertensive rats
# Settings: SCH-23390 200 μg/kg iv; nepicastat 10 mg/kg po
# Excerpt: Male, spontaneous hypertensive rats (280-345 g; Charles River Labs, Kingston, N.Y.) were fasted overnight then anesthetized with ether. A femoral artery and femoral vein were cannulated with PE50 tubing for recording of blood pressure and administration of compounds, respectively. Animals were then placed in MAYO restrainers and their feet loosely taped to the restrainer. Heparinized saline (50 units sodium heparin/ml) was used to maintain patency of each cannula throughout the experiment. The following parameters were continuously recorded using Modular Instruments MI^2 BioReport™ software installed on an IBM personal computer: mean arterial pressure (MAP), heart rate (HR), and the change from baseline for each parameter at specified time points in the experiment. […]
# Following surgical preparation, each animal was allowed a minimum one hour recovery period. […] Once animals were stabilized (minimum one hour), baseline blood pressure and heart rate was determined by taking an average of each parameter over a 15 min period of time. […]
# Recorded parameters were measured 15 min prior to intravenous dosing to establish baseline blood pressure and heart rate. Recorded parameters were then measured at 5, 10, and 15 min following intravenous administration of SCH-23390 or vehicle. […]
compound,measurement,value
"CN1CCc2cc(Cl)c(O)cc2[C@@H](c2ccccc2)C1 [SCH-23390, reference compound]",heart rate vs vehicle,significant decrease (p<0.05) in heart rate
